Results are given in words; binding and its absence hold for the method and conditions named. Binding can be weak; no strength is given. Sequences can lack the tags named with a protein.
Columns and labels:
[1] = biological target: BMP-2 (Homo sapiens (Human)); assay: SPR (Biacore T100), Tfr2-ECD immobilized, BMP 50 nM as analyte
BMP-6 [2] = assay: as above
BMP-4 [3] = assay: as above
BMP-7 [4] = assay: as above
[5] = biological target: BMP-2 (Homo sapiens (Human)); assay: SPR (Biacore T100), Tfr2-ECD immobilized on C1 chip, BMP 50 nM as analyte, 37 C
BMP-6 [6] = assay: as above
BMP-4 [7] = assay: as above
BMP-7 [8] = assay: as above
[9] = biological target: BMP-2 (Homo sapiens (Human)); assay: BMP-2-competitive ELISA; 1.5 ng/ml BMP-2 with increasing Tfr2-ECD, read by BMP-2 capture and detection antibodies

Measured: binding

B1: recombinant His-Tfr2-ECD (murine extracellular domains of Tfr2, aa 103-798, with 6x His tag) (receptor, not shown: small tags and cut ends)
chain: RGSCQACGDSVLVVDEDVNPEDSGRTTLYWSDLQAMFLRFLGEGRMEDTIRLTSLRERVAGSARMATLVQDILDKLSRQKLDHVWTDTHYVGLQFPDPAHANTLHWVDADGSVQEQLPLEDPEVYCPYSATGNATGKLVYAHYGRSEDLQDLKAKGVELAGSLLLVRVGITSFAQKVAVAQDFGAQGVLIYPDPSDFSQDPHKPGLSSHQAVYGHVHLGTGDPYTPGFPSFNQTQFPPVESSGLPSIPAQPISADIADQLLRKLTGPVAPQEWKGHLSGSPYRLGPGPDLRLVVNNHRVSTPISNIFACIEGFAEPDHYVVIGAQRDAWGPGAAKSAVGTAILLELVRTFSSMVSNGFRPRRSLLFISWDGGDFGSVGATEWLEGYLSVLHLKAVVYVSLDNSVLGDGKFHAKTSPLLVSLIENILKQVDSPNHSGQTLYEQVALTHPSWDAEVIQPLPMDSSAYSFTAFAGVPAVEFSFMEDDRVYPFLHTKEDTYENLHKMLRGRLPAVVQAVAQLAGQLLIRLSHDHLLPLDFGRYGDVVLRHIGNLNEFSGDLKERGLTLQWVYSARGDYIRAAEKLRKEIYSSERNDERLMRMYNVRIMRVEFYFLSQYVSPADSPFRHIFLGQGDHTLGALVDHLRMLRADGSGAASSRLTAGLGFQESRFRRQLALLTWTLQGAANALSGDVWNIDNNF
binds: [1] | BMP-6 [2] | BMP-4 [3] | BMP-7 [4] | [5] | BMP-6 [6] | BMP-4 [7] | BMP-7 [8] | [9]
